Experimental findings from patent publication US20120052070A1 (Novartis, published 2012) are described below.

Results are given in words; binding and its absence hold for the method and conditions named. A result given as binding can be weak or reduced; the word gives no strength.

The experiment addresses rat DKK1 (rat). The experiment can be described thus: solution equilibrium titration (SET).

B1: anti-DKK1/4 antibody (antibody, V domains shown)
VH: QVQLVESGGGLVQPGGSLRLSCAASGFTFSSYWMSWVRQAPGKGLEWVSGISYSGSNTHYADSVKGRFTISRDNSKNTLYLQMNSLRAEDTAVYYCARMGIDLDYWGQGTLVTVSS
VL: DIALTQPASVSGSPGQSITISCTGTSSDVGGFNYVSWYQQHPGKAPKLMIHDGSNRPSGVSNRFSGSKSGNTASLTISGLQAEDEADYYCQSWDVSPITAVFGGGTKLTVLG
For B1, the binding result is given as “binds”.
